Assay results from the supplement of paper PMC10849652.
The other results are listed elsewhere or left out.

Protein sequences, listed by entry. Tags and fused reporters are not part of them. Lines headed by an entry give the natural chain unless they say otherwise; changes in a name come on top.
UniProt Q93073: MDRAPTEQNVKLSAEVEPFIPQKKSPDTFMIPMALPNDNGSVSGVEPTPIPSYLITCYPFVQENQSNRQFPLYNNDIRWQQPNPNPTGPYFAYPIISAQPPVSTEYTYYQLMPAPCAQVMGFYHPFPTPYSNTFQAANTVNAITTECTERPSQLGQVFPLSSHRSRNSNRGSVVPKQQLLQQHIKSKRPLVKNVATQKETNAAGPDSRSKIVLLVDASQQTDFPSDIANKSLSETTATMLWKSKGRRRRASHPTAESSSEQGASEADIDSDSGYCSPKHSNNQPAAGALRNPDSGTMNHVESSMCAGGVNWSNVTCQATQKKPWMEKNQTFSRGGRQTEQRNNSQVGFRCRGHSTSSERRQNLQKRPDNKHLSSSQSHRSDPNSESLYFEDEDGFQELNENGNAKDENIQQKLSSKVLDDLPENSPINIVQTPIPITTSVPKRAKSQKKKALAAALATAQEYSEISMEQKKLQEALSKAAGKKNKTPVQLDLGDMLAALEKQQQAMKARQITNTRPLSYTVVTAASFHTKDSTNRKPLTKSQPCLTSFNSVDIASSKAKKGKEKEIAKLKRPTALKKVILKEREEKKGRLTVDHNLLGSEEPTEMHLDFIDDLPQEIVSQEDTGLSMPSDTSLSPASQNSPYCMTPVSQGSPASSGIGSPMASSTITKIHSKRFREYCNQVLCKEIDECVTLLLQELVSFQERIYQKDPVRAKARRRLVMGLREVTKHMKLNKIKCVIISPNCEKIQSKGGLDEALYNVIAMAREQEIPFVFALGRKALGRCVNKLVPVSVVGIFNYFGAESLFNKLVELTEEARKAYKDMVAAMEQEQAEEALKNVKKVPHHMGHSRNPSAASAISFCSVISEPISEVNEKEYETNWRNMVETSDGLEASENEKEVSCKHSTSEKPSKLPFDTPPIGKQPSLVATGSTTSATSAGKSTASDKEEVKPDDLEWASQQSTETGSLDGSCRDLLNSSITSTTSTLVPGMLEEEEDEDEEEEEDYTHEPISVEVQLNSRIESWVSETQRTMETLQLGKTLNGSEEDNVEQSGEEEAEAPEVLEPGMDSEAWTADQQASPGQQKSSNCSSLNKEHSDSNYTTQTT
UniProt Q9NPR2: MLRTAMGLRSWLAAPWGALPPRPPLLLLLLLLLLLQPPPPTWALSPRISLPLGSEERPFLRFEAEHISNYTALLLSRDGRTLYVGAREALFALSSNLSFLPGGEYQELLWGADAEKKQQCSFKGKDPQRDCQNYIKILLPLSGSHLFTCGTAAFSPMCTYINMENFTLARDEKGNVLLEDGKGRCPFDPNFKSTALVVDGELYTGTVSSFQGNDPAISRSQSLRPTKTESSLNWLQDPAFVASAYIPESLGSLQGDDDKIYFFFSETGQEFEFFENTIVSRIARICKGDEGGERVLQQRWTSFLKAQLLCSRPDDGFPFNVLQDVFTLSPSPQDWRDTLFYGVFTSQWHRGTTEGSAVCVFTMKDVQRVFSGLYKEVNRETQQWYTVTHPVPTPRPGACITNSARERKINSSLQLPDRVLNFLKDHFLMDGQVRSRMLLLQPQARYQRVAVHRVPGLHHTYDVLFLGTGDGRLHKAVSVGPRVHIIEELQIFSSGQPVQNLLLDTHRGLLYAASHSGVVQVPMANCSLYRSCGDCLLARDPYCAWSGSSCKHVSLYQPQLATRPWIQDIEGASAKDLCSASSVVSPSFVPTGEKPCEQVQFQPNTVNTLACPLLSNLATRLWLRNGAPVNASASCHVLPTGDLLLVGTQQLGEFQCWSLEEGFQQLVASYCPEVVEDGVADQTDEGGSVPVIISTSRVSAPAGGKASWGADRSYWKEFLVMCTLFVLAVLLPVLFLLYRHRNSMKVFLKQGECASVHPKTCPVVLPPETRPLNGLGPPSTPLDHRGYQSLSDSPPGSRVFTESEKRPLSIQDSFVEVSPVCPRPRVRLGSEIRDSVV
UniProt Q8NBX0: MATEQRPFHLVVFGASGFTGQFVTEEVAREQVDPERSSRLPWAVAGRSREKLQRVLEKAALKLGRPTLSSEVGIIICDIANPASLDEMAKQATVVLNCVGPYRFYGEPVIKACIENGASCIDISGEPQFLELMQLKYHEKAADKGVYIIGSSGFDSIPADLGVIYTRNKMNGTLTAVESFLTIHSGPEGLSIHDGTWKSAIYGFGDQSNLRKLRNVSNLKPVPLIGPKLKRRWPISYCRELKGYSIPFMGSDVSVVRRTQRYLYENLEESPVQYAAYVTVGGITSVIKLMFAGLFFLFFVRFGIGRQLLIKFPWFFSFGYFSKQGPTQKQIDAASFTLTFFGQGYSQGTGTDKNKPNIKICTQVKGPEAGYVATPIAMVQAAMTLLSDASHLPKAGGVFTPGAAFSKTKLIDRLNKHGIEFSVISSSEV
UniProt O00767: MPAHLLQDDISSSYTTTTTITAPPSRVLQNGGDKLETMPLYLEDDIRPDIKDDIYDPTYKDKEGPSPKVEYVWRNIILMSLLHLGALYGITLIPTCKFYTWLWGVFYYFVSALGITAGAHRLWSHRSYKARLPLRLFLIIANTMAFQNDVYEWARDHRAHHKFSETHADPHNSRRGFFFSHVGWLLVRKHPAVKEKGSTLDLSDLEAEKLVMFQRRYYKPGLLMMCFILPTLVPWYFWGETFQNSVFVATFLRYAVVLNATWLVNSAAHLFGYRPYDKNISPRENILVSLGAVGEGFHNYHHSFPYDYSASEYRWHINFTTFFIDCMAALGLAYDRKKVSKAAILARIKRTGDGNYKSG
UniProt Q99643: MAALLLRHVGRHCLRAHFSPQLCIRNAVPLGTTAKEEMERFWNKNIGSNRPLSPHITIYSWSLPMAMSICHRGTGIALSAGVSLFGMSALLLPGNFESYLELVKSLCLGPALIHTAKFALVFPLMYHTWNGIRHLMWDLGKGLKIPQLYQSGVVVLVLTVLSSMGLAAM
UniProt Q8WVM8, whole entry, looked up: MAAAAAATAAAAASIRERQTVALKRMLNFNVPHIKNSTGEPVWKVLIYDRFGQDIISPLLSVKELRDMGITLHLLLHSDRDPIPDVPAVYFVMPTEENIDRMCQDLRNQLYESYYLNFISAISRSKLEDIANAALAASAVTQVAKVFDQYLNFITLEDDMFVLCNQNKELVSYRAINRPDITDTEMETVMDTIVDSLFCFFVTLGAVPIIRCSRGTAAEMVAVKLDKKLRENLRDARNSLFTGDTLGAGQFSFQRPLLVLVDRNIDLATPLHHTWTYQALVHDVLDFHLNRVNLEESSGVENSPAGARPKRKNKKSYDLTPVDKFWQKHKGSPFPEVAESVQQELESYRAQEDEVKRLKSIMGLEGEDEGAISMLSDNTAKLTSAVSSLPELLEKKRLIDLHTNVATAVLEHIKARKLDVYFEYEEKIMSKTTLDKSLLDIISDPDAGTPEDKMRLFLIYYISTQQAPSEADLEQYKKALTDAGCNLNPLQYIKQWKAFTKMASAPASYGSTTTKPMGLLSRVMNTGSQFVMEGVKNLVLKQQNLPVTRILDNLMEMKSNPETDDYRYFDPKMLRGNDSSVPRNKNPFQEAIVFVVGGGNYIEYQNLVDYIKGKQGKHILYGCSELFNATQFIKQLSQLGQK
UniProt Q9UBE0: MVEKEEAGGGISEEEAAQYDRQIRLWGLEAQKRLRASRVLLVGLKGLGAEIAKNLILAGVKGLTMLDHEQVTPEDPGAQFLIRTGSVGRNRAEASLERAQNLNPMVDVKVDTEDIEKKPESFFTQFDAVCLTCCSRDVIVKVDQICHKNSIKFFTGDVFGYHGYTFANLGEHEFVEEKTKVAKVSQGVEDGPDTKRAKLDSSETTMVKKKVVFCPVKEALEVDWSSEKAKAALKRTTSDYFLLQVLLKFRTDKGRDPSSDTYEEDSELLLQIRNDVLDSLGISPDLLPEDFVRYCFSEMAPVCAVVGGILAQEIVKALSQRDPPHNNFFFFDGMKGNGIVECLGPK
UniProt Q8IZQ5, whole entry, looked up: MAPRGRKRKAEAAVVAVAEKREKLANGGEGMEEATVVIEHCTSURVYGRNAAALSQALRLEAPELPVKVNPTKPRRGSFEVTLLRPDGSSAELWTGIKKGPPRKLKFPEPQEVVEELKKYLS
UniProt Q96I15: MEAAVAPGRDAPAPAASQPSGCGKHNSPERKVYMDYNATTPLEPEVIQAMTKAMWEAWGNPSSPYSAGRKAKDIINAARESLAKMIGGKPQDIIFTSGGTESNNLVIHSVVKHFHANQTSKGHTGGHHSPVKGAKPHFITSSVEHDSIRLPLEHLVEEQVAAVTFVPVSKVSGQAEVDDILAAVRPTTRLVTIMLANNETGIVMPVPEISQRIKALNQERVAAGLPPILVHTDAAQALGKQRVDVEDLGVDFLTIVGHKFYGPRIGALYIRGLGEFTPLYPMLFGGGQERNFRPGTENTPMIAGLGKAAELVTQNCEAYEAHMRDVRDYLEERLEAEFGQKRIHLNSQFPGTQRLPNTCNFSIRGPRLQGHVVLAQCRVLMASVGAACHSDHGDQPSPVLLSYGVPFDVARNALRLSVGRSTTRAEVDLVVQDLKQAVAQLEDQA
UniProt O00422: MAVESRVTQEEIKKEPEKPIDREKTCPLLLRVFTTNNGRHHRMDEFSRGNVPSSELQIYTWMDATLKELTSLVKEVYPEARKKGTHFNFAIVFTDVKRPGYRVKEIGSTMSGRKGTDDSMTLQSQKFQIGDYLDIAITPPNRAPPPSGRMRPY
UniProt Q96BU1: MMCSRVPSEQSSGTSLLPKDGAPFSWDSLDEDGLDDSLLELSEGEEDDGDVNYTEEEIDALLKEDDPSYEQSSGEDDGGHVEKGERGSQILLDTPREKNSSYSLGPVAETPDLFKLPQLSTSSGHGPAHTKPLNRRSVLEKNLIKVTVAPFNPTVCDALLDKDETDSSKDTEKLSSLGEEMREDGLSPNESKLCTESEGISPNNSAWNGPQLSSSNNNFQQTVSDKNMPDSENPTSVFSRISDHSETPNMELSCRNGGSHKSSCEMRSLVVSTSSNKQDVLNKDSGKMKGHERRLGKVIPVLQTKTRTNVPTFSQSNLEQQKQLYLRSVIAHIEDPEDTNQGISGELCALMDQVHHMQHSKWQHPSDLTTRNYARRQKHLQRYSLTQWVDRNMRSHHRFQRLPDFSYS
UniProt P53992: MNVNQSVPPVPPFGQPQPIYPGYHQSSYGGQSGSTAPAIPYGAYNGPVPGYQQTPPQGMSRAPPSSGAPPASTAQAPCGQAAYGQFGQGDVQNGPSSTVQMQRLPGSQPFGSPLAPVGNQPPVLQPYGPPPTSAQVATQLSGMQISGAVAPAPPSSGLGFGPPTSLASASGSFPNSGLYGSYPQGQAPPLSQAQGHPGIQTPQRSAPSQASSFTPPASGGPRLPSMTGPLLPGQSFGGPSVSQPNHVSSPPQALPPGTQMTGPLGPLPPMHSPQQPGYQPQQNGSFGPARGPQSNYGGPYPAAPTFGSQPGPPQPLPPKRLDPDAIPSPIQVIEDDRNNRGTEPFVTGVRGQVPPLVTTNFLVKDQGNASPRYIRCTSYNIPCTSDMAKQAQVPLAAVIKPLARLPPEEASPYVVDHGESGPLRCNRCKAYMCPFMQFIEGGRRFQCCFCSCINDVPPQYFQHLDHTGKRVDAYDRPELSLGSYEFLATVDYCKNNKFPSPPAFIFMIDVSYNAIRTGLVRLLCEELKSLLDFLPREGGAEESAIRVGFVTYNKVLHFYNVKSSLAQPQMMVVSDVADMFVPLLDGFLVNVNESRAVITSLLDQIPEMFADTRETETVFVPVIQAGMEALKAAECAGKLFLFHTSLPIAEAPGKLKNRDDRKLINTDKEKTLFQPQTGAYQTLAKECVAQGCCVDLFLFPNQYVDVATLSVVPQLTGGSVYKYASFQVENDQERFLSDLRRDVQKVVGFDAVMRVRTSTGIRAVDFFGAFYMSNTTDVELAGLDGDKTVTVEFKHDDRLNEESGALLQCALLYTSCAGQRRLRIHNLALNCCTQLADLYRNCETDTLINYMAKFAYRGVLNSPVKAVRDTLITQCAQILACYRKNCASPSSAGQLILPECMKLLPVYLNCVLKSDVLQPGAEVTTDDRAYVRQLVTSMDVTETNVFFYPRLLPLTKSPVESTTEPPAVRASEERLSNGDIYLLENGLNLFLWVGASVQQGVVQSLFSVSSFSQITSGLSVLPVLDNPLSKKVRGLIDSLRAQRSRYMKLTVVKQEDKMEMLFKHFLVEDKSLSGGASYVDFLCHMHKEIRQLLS
UniProt P61619, whole entry, looked up: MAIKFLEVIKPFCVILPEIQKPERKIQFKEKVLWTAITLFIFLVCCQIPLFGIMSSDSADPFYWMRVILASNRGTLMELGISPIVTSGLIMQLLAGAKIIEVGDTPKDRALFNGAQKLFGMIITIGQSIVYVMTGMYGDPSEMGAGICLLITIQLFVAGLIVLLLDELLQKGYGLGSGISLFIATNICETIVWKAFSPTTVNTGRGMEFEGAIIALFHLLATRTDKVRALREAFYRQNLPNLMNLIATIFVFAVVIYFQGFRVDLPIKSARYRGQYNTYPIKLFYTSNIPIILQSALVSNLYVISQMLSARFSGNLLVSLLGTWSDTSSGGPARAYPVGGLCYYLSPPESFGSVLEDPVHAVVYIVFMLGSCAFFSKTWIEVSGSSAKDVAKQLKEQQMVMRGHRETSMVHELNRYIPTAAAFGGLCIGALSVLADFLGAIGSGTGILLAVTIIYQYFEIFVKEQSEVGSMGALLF

How the values were obtained:
Experiment in all cases: log2 fold change, soluble protein after heating vs DMSO (PISA); higher = thermal stabilisation; K562 lysate, 10 uM; active = over 0.2 and 3.5 SD of the protein, either way, in both replicates (recomputed)
[1] = compound: C1=CC=C(C=C1)[C@H](COC2=CC3=C(C=C2)NC(=O)N3)NC(=O)C4=CC=CN(C4=O)CC5=CC(=C(C=C5)F)F
How it was run: (§1)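 Values give the log-two fold change in thermal stability against solvent controls, from duplicates. Crude K562 extract at 1 mg/mL protein, made by dounce homogenisation in PBS pH 7.4 with 1 mM MgCl2, was treated with 10 μM compound for 30 min. After 3 min heating across 48°C-58°C, aliquots were pooled, adjusted to 0.5% NP-40 at 4°C and centrifuged at 21,000xg for 90 min. The supernatant was measured by TMTpro 16plex LC-MS/MS with channel sums equalised.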

[2] = compound: CC1=C(SC2=C1C(=N[C@H](C3=NN=C(N32)C)CC(=O)N)C4=CC=C(C=C4)Cl)C
How it was run: as §1

[3] = compound: CC1=C2C(=CC=C1)N=C(N(C2=O)C3=CC=CC=C3C)CN4C=NC5=C(N=CN=C54)N
How it was run: as §1

[4] = compound: Cc1sc2c(c1C)C(c1ccc(Cl)cc1)=N[C@@H](CC(=O)OC(C)(C)C)c1nnc(C)n1-2
How it was run: as §1

[5] = compound: c1ccc([C@@H]2C[C@H]2NC2CCNCC2)cc1
How it was run: as §1

Measured: log2 fold change

SCAMP1 (UniProt O15126)
inactive: [1] 0.009 | [2] -0.025 | [3] 0.008 | [4] -0.108 | [5] -0.088

SECISBP2L (UniProt Q93073)
inactive: [1] 0.25 | [2] -0.085 | [3] 0 | [4] 0 | [5] 0.116

SDF4 (UniProt Q9BRK5)
inactive: [1] 0.076 | [2] -0.029 | [3] 0.01 | [4] 0.021 | [5] 0.017

SEC24D isoform 2 (UniProt O94855)
inactive: [1] -0.003 | [2] 0.006 | [3] -0.016 | [4] 0.033 | [5] 0.009

SEMA4B (UniProt Q9NPR2)
inactive: [1] -0.097 | [2] 0.29 | [3] 0.068 | [4] 0.048 | [5] -0.051

SCCPDH (UniProt Q8NBX0)
inactive: [1] 0.165 | [2] -0.144 | [3] 0.038 | [4] -0.004 | [5] -0.164

Two records picked at random from the list so far, as already listed:
SDF4 (UniProt Q9BRK5)
inactive: [1] 0.076 | [2] -0.029 | [3] 0.01 | [4] 0.021 | [5] 0.017

SCAMP1 (UniProt O15126)
inactive: [1] 0.009 | [2] -0.025 | [3] 0.008 | [4] -0.108 | [5] -0.088

Next entries.

SCD (UniProt O00767)
inactive: [1] -0.016 | [2] -0.007 | [3] 0.103 | [4] -0.179 | [5] -0.184

SAFB isoform 3 (UniProt Q15424)
inactive: [1] 0.053 | [2] -0.043 | [3] 0.036 | [4] -0.022 | [5] -0.082

SEPTIN7 (UniProt Q16181)
inactive: [1] 0.05 | [2] 0.012 | [3] -0.006 | [4] 0.022 | [5] 0.062

SART3, A0A499FI31
inactive: [1] 0.015 | [2] -0.022 | [3] 0.002 | [4] 0.009 | [5] 0.021

SDHC (UniProt Q99643)
inactive: [1] -0.045 | [2] -0.016 | [3] 0.035 | [4] -0.085 | [5] -0.09

SACM1L (UniProt Q9NTJ5)
inactive: [1] -0.088 | [2] -0.012 | [3] 0.055 | [4] 0.035 | [5] 0.022

SEPTIN5 (UniProt G3XAH0)
inactive: [1] 0.015 | [2] -0.024 | [3] -0.04 | [4] 0.048 | [5] -0.078

SCFD1 (UniProt Q8WVM8)
inactive: [1] -0.021 | [2] -0.003 | [3] -0.009 | [4] 0.052 | [5] 0.011

SELENOK (UniProt Q9Y6D0)
inactive: [1] 0.061 | [2] -0.074 | [3] -0.05 | [4] -0.181 | [5] -0.311

SAE1 (UniProt Q9UBE0)
inactive: [1] -0.001 | [2] -0.001 | [3] -0.01 | [4] -0.02 | [5] 0.018

SCO1 (UniProt O75880)
inactive: [1] -0.021 | [2] 0.017 | [3] 0 | [4] 0.136 | [5] -0.027

SELENOH (UniProt Q8IZQ5)
inactive: [1] 0.022 | [2] 0.033 | [3] 0.026 | [4] -0.022 | [5] 0.045

SAP30 (UniProt O75446)
inactive: [1] 0.029 | [2] -0.029 | [3] 0.009 | [4] 0.014 | [5] -0.026

SCYL1 (UniProt Q96KG9)
inactive: [1] 0.042 | [2] -0.004 | [3] -0.029 | [4] 0.092 | [5] -0.001

SBF1 isoform 4 (UniProt O95248)
inactive: [1] -0.08 | [2] 0.001 | [3] -0.094 | [4] 0.092 | [5] 0.072

SEPHS1 (UniProt P49903)
inactive: [1] -0.013 | [2] -0.049 | [3] -0.007 | [4] -0.008 | [5] -0.007

SCLY (UniProt Q96I15)
inactive: [1] 0.026 | [2] 0.039 | [3] 0.043 | [4] 0.032 | [5] -0.03

SAMHD1 (UniProt Q9Y3Z3)
inactive: [1] 0.005 | [2] 0.002 | [3] -0.018 | [4] 0.051 | [5] -0.002

SAP18 isoform 2 (UniProt O00422)
inactive: [1] -0.012 | [2] 0.049 | [3] 0.008 | [4] 0.036 | [5] -0.035

S100PBP (UniProt Q96BU1)
inactive: [1] -0.065 | [2] -0.03 | [3] -0.222 | [4] -0.053 | [5] -0.108

SEC24C (UniProt P53992)
inactive: [1] -0.012 | [2] 0.008 | [3] 0 | [4] 0.03 | [5] 0.042

SEC61A1 (UniProt P61619)
inactive: [1] 0.008 | [2] -0.002 | [3] -0.029 | [4] 0.029 | [5] -0.077

SCAMP4 (UniProt Q969E2)
inactive: [1] 0.052 | [2] -0.036 | [3] -0.019 | [4] -0.056 | [5] -0.071

SAMD4B (UniProt Q5PRF9)
inactive: [1] -0.014 | [2] 0.038 | [3] 0.056 | [4] 0.01 | [5] -0.034
